The values below come from publication PMC10542350, “Structural basis of nucleosome deacetylation and DNA linker tightening by Rpd3S histone deacetylase complex” (Cell Research, 2023).

The target in test [1] is NCP^187bp (Xenopus laevis). The test is described as follows: cryo-EM structure; reconstituted Rpd3S–NCP^187bp–Hho1 complex; consensus map of 6.2 Å; both purified.
Test [2] addresses NCP^187bp (Xenopus laevis). Description: native gel or EMSA; 150 nM NCP^187bp in 7 μL with Rpd3S and Hho1 titration (0, 12.5, 37.5, 112.5 μM); 4.5% native PAGE, 0.5× TBE, 4 °C; both purified.

These are yes or no findings as the source states them, for the method shown. Binding can be weak; no strength is given.

B1: Hho1 globular domain (residues 41–117) (domain or fragment, UniProt P53551 41-117)
chain: EASSKSYRELIIEGLTALKERKGSSRPALKKFIKENYPIVGSASNFDLYFNNAIKKGVEAGDFEQPKGPAGAVKLAK
Turning to B1, the binding entry in test [1] and in test [2] was “binds” throughout.
